Results deposited as PubChem BioAssay AID720505 (Drosophila RNAi Screening Center, 2013).

Assay: 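Genes needed for store-operated calcium entry in fly cells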 (primary screen)
System: Drosophila S2R+ cells
Reagent: long dsRNA against Drosophila genes
Challenge: thapsigargin (2 µM) in calcium-free buffer to empty internal stores, then 2 mM calcium added back
Read-out: 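Fluo-4 signal in 384-well plates read on a FLIPR after thapsigargin (2 µM, calcium-free) store depletion and 2 mM calcium add-back; unnormalised mean endpoint per well; screen run twice, selected wells retested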
Direction: calcium signal: higher = more calcium entry after store depletion
Call rule: 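Knock-downs counted as hits when calcium entry dropped relative to STIM1 positive and Rho1 negative controls present on each plate; roughly 1500 genes called, with reductions of differing size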
Meaning of the calls: active = called as lowering calcium entry; inactive = not called
In all, the deposit lists about 20,000 reagents; this is a random part of those that have a named target and a result. In the full data, about 2,100 (10%) are marked active. 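Raw plate signals without normalisation; calls rest on control-based scores that were not deposited; replicate 2 separates called from uncalled poorly.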 A number with no mark means an inactive call. The record does not give: the amount of reagent, the time to read-out.

With axo [DRSC08116], what does the deposit list?
calcium signal, replicate 1: 98; calcium signal, replicate 2: 86.8

What is on record for axo [DRSC08324]?
calcium signal, replicate 1: 87.6; calcium signal, replicate 2: 70.6

What did the screen give for axo [DRSC08326]?
calcium signal, replicate 1: 83.7; calcium signal, replicate 2: 74.2

Which result is listed for axo [DRSC21337]?
calcium signal, replicate 1: 72.4; calcium signal, replicate 2: 112

With axo [DRSC23087], what was measured?
calcium signal, replicate 1: 52.1 (active); calcium signal, replicate 2: 83.1

With dpr8 [DRSC19406], what was measured?
calcium signal, replicate 1: 115; calcium signal, replicate 2: 149

What did the screen give for dpr8 [DRSC19600]?
calcium signal, replicate 1: 131; calcium signal, replicate 2: 147

What is on record for dpr8 [DRSC19938]?
calcium signal, replicate 1: 107; calcium signal, replicate 2: 133

Which result is listed for dpr8 [DRSC19939]?
calcium signal, replicate 1: 99.5; calcium signal, replicate 2: 119

What is on record for CG33080 [DRSC18080]?
calcium signal, replicate 1: 241; calcium signal, replicate 2: 134

What is on record for CG33080 [DRSC18081]?
calcium signal, replicate 1: 223; calcium signal, replicate 2: 105

For CG33080 [DRSC18285], how do the results read?
calcium signal, replicate 1: 72.1 (active); calcium signal, replicate 2: 179

Limited to “calcium signal, replicate 2” (2 entries from above):
axo [DRSC08326] = 74.2
axo [DRSC21337] = 112
